Record: PubChem BioAssay AID504804 (Drosophila RNAi Screening Center, 2011)

- Assay: 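dsRNAs that improve Kc cell survival under doxorubicin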 (primary screen)
- Cells: Drosophila Kc cells
- Knock-down reagent: long dsRNA against Drosophila genes, 0.5 µg dsRNA per well
- Timing: 96 h (48 h knock-down, then 48 h drug)
- Challenge: doxorubicin 5 µg/ml for 48 h, added 48 h after dsRNA
- Detection: 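Luminescent ATP counts per replicate, not normalised, reflecting viable cells after 48 h dsRNA knock-down followed by 48 h of 5 µg/ml doxorubicin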
- Reading the numbers: raw ATP luminescence: higher = more viable cells, protection from doxorubicin
- Call rule: 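z-score of 2 or more over plate mean in both duplicates, retained only when retests and separate dsRNAs confirm the protection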
The screen tested about 19,000 reagents; this is a random part of those that have a named target and a result. Over the whole deposit, 47 (0.25%) got an active call. 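Signals are raw, not normalised; exact z-scores behind calls not deposited; actives needed confirmation, so some wells reaching 2 SD are inactive.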 A plus sign joins genes that one reagent is predicted to hit.

For CG11999 (GeneID 40637) [DRSC12185], how do the results read?
raw ATP luminescence, replicate 1: 50153; raw ATP luminescence, replicate 2: 50900; Call: inactive

For CG9897 + asRNA:CR42742 [DRSC04595], what was measured?
raw ATP luminescence, replicate 1: 67240; raw ATP luminescence, replicate 2: 54560; Call: inactive

How did the screen score CG9445 (GeneID 50147) [DRSC05006]?
raw ATP luminescence, replicate 1: 39963; raw ATP luminescence, replicate 2: 1.10e5; Call: inactive

What is on record for alphaTub85E (GeneID 41183) [DRSC16899]?
raw ATP luminescence, replicate 1: 64203; raw ATP luminescence, replicate 2: 50373; Call: inactive

How did the screen score c12.1 (GeneID 53435) [DRSC18750]?
raw ATP luminescence, replicate 1: 3.50e5; raw ATP luminescence, replicate 2: 2.84e5; Call: inactive

What did the screen give for CG11865 (GeneID 34917) [DRSC01872]?
raw ATP luminescence, replicate 1: 56173; raw ATP luminescence, replicate 2: 73060; Call: inactive

What is on record for Inx5 (GeneID 32901) [DRSC20051]?
raw ATP luminescence, replicate 1: 2.89e5; raw ATP luminescence, replicate 2: 3.60e5; Call: inactive

For EloA (GeneID 42749) [DRSC16109], how do the results read?
raw ATP luminescence, replicate 1: 35757; raw ATP luminescence, replicate 2: 33950; Call: inactive

Which result is listed for RpS19a (GeneID 32635) [DRSC20281]?
raw ATP luminescence, replicate 1: 1.59e5; raw ATP luminescence, replicate 2: 1.14e5; Call: inactive

For RpL9 (GeneID 34526) [DRSC03418], how do the results read?
raw ATP luminescence, replicate 1: 22020; raw ATP luminescence, replicate 2: 29060; Call: inactive

With Socs36E (GeneID 35085) [DRSC02455], what was measured?
raw ATP luminescence, replicate 1: 92700; raw ATP luminescence, replicate 2: 71267; Call: inactive

With CG33221 (retired record) (GeneID 2768878) [DRSC21201], how do the results read?
raw ATP luminescence, replicate 1: 2.09e5; raw ATP luminescence, replicate 2: 2.42e5; Call: inactive

3 consecutive entries already listed, quoted:
c12.1 (GeneID 53435) [DRSC18750]: raw ATP luminescence, replicate 1 = 3.50e5; raw ATP luminescence, replicate 2 = 2.84e5; Call = inactive
CG11865 (GeneID 34917) [DRSC01872]: raw ATP luminescence, replicate 1 = 56173; raw ATP luminescence, replicate 2 = 73060; Call = inactive
Inx5 (GeneID 32901) [DRSC20051]: raw ATP luminescence, replicate 1 = 2.89e5; raw ATP luminescence, replicate 2 = 3.60e5; Call = inactive

The list goes on:
How did the screen score RpL21 (GeneID 35453) [DRSC03704]?
raw ATP luminescence, replicate 1: 35020; raw ATP luminescence, replicate 2: 35837; Call: inactive

For Hel89B (GeneID 41943) [DRSC16700], what was measured?
raw ATP luminescence, replicate 1: 56037; raw ATP luminescence, replicate 2: 47767; Call: inactive

With twf (GeneID 41719) [DRSC15466], how do the results read?
raw ATP luminescence, replicate 1: 52997; raw ATP luminescence, replicate 2: 34510; Call: inactive

For CG6432 (GeneID 42901) [DRSC16039], what was measured?
raw ATP luminescence, replicate 1: 49483; raw ATP luminescence, replicate 2: 53650; Call: inactive

Which result is listed for l(3)mbn (GeneID 38701) [DRSC08793]?
raw ATP luminescence, replicate 1: 1.25e5; raw ATP luminescence, replicate 2: 71397; Call: inactive

With Acsx1R (GeneID 42352) [DRSC14339], what was measured?
raw ATP luminescence, replicate 1: 63100; raw ATP luminescence, replicate 2: 36290; Call: inactive

What is on record for AstC (GeneID 34537) [DRSC02403]?
raw ATP luminescence, replicate 1: 40763; raw ATP luminescence, replicate 2: 86800; Call: inactive

With Cdc16 (GeneID 42753) [DRSC16920], how do the results read?
raw ATP luminescence, replicate 1: 64060; raw ATP luminescence, replicate 2: 69120; Call: inactive

For CG12698 (GeneID 32570) [DRSC19485], how do the results read?
raw ATP luminescence, replicate 1: 4.19e5; raw ATP luminescence, replicate 2: 3.13e5; Call: inactive

How did the screen score SPARC (GeneID 43230) [DRSC14123]?
raw ATP luminescence, replicate 1: 53640; raw ATP luminescence, replicate 2: 43630; Call: inactive

With CG34197 (retired record) (GeneID 5740455) [DRSC05791], how do the results read?
raw ATP luminescence, replicate 1: 1.20e5; raw ATP luminescence, replicate 2: 74637; Call: inactive

What did the screen give for CG14142 (GeneID 39261) [DRSC10145]?
raw ATP luminescence, replicate 1: 86293; raw ATP luminescence, replicate 2: 90170; Call: inactive

Which result is listed for Ccm3 (GeneID 41876) [DRSC15711]?
raw ATP luminescence, replicate 1: 90640; raw ATP luminescence, replicate 2: 61390; Call: inactive

For ATbp (GeneID 5740592) [DRSC20906], how do the results read?
raw ATP luminescence, replicate 1: 2.47e5; raw ATP luminescence, replicate 2: 2.00e5; Call: inactive

With CG13056 (GeneID 50267) [DRSC09937], how do the results read?
raw ATP luminescence, replicate 1: 70787; raw ATP luminescence, replicate 2: 55917; Call: inactive

For CG14369 (GeneID 41660) [DRSC14831], what was measured?
raw ATP luminescence, replicate 1: 76000; raw ATP luminescence, replicate 2: 74580; Call: inactive
